Measurements reported in PubChem BioAssay AID1259308 (NCATS, 2017).
The deposit covers about 59,000 reagents; below is a random part of them. Of all reagents, about 1,510 (2.6%) got an active call. 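Calls use total luciferase alone and ignore viability, so some active siRNAs may act by altering cell number.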 The numbers tell different reagents against one gene apart. Not all columns of the deposit are shown.

Test: 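Knock-downs that increase output of a recombinant reporter protein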 (primary screen)
Cells: human HEK293 embryonic kidney cells stably expressing firefly luciferase (HEK-CMV-Luc2-Hygro)
Knock-down reagent: single siRNA against human genes, 0.8 pmol siRNA per well
Time to read-out: 72 h
Read-out: 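Luciferase light (ONE-Glo) measured on one replicate plate set and viability (CellTiter-Glo) on the other, scaled to a negative control siRNA, with robust z-scores and luciferase per cell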
Direction: total luciferase, z-score: higher = more reporter protein produced
Active means: 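An siRNA counts as active if its total luciferase robust z-score exceeds 3; genes with two or more such siRNAs out of three were retested with fresh siRNAs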
Calls: active = raised luciferase; inactive = no rise

After knock-down of CYP20A1 (GeneID 57404) #1, the screen gave total luciferase, z-score -0.266; inactive.
After knock-down of CYP20A1 (GeneID 57404) #2, the record shows total luciferase, z-score -1.2; inactive.
For CYP20A1 (GeneID 57404) #3, the values are total luciferase, z-score -0.62; inactive.
EIF2B1 (GeneID 1967) #1 showed total luciferase, z-score -0.0594; inactive.
After knock-down of EIF2B1 (GeneID 1967) #2, the record shows total luciferase, z-score -0.833; inactive.
With knock-down of EIF2B1 (GeneID 1967) #3 the results were total luciferase, z-score 0.223; inactive.
Against CYBB (GeneID 1536) #1 the deposit lists total luciferase, z-score -0.719; inactive.
CYBB (GeneID 1536) #2 showed total luciferase, z-score 2.97; inactive.
After knock-down of CYBB (GeneID 1536) #3, the screen gave total luciferase, z-score 0.299; inactive.
Depletion of TPCN1 (GeneID 53373) #1 gave: total luciferase, z-score -0.539; inactive.
Depletion of TPCN1 (GeneID 53373) #2 gave: total luciferase, z-score 0.208; inactive.
TPCN1 (GeneID 53373) #3 scored total luciferase, z-score -0.155; inactive.

A run of entries taken from the entries so far:
CYBB (GeneID 1536) #1 | total luciferase, z-score: -0.719; activity call: inactive
CYBB (GeneID 1536) #2 | total luciferase, z-score: 2.97; activity call: inactive

Additional entries follow.
With knock-down of THEMIS2 (GeneID 9473) #1, the record shows total luciferase, z-score 0.227; inactive.
Against THEMIS2 (GeneID 9473) #2, the values are total luciferase, z-score -0.349; inactive.
THEMIS2 (GeneID 9473) #3 scored total luciferase, z-score 0.972; inactive.
With knock-down of TCIRG1 (GeneID 10312) #1, the record shows total luciferase, z-score -0.101; inactive.
TCIRG1 (GeneID 10312) #2 gave total luciferase, z-score -0.846; inactive.
With knock-down of TCIRG1 (GeneID 10312) #3, the record shows total luciferase, z-score 1.33; inactive.
Silencing of RPP25 (GeneID 54913) #1 came out at: total luciferase, z-score 0.011; inactive.
Knock-down of RPP25 (GeneID 54913) #2 came out at: total luciferase, z-score 1.94; inactive.
For RPP25 (GeneID 54913) #3, the entry reads total luciferase, z-score -0.586; inactive.
